The assay deals with Flag-FASN (fatty acid synthase, wild type) (human) (UniProt P49327). The assay can be described thus: affinity purification with mass spectrometry; Flag-FASN MS; hits intersected with the CircRREB1 pulldown MS.

By UniProt entry, the sequences of proteins in these tests, tags left out.
UniProt P49327: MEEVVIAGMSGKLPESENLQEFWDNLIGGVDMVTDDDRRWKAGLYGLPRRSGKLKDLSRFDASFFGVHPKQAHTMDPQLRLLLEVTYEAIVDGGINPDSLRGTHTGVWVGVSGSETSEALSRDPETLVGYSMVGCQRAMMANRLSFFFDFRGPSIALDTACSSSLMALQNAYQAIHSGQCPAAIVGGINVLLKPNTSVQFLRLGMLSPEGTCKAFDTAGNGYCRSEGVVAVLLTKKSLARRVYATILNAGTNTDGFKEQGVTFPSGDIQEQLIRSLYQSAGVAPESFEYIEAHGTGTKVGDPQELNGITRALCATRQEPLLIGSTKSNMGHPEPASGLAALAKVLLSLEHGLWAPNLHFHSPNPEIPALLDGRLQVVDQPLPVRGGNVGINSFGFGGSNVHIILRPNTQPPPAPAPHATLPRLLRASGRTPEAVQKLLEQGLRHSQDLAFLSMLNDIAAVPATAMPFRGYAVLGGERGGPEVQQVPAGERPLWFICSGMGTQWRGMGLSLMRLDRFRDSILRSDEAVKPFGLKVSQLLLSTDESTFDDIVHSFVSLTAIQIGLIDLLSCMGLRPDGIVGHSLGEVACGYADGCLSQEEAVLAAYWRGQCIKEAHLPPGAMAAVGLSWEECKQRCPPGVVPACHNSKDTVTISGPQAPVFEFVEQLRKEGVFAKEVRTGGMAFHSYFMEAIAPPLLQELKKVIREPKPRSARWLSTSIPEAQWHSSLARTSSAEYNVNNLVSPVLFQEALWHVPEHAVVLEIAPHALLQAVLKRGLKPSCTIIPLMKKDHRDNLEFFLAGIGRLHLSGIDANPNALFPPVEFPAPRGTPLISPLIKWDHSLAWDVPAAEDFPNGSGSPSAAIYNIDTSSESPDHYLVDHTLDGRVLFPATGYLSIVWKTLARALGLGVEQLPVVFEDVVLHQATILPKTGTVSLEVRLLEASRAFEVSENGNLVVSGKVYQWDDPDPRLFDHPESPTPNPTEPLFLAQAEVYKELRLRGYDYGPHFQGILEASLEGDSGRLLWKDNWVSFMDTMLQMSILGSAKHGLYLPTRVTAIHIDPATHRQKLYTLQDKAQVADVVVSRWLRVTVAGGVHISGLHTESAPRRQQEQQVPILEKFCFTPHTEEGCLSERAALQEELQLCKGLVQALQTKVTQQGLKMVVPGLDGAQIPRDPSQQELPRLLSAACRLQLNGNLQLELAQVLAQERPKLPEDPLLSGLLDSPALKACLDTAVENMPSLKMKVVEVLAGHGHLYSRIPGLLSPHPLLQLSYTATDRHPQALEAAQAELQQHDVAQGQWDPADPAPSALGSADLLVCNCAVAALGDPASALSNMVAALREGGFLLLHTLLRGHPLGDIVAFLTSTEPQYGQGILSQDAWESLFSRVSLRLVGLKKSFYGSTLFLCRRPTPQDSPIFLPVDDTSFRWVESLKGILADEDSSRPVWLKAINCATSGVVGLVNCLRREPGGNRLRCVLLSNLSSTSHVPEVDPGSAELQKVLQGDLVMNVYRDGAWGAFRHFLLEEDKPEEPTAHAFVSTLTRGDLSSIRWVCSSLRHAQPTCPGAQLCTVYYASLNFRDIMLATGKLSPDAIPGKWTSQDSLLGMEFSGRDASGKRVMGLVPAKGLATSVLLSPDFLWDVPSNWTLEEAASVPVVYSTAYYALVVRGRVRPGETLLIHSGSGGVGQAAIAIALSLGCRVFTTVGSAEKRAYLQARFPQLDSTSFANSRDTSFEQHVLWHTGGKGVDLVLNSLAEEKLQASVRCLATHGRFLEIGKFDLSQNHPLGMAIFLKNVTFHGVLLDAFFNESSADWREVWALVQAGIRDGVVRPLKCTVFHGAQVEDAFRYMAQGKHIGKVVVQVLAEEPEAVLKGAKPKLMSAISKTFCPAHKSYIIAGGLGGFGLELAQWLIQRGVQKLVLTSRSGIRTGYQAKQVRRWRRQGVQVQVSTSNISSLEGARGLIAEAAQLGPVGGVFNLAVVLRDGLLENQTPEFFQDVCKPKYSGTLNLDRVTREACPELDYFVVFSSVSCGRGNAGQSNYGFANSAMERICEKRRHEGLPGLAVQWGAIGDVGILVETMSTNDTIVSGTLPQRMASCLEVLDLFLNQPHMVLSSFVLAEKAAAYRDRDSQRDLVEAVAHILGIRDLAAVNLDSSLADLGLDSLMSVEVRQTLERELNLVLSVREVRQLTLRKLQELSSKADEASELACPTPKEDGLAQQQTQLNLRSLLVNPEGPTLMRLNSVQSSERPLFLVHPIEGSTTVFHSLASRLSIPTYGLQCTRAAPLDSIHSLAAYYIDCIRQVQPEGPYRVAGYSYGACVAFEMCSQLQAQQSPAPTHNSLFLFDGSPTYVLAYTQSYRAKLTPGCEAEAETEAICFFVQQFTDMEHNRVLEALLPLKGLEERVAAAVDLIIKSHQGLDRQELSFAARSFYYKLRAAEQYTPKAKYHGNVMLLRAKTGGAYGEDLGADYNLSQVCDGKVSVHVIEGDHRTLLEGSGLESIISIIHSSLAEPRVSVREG
UniProt P49792: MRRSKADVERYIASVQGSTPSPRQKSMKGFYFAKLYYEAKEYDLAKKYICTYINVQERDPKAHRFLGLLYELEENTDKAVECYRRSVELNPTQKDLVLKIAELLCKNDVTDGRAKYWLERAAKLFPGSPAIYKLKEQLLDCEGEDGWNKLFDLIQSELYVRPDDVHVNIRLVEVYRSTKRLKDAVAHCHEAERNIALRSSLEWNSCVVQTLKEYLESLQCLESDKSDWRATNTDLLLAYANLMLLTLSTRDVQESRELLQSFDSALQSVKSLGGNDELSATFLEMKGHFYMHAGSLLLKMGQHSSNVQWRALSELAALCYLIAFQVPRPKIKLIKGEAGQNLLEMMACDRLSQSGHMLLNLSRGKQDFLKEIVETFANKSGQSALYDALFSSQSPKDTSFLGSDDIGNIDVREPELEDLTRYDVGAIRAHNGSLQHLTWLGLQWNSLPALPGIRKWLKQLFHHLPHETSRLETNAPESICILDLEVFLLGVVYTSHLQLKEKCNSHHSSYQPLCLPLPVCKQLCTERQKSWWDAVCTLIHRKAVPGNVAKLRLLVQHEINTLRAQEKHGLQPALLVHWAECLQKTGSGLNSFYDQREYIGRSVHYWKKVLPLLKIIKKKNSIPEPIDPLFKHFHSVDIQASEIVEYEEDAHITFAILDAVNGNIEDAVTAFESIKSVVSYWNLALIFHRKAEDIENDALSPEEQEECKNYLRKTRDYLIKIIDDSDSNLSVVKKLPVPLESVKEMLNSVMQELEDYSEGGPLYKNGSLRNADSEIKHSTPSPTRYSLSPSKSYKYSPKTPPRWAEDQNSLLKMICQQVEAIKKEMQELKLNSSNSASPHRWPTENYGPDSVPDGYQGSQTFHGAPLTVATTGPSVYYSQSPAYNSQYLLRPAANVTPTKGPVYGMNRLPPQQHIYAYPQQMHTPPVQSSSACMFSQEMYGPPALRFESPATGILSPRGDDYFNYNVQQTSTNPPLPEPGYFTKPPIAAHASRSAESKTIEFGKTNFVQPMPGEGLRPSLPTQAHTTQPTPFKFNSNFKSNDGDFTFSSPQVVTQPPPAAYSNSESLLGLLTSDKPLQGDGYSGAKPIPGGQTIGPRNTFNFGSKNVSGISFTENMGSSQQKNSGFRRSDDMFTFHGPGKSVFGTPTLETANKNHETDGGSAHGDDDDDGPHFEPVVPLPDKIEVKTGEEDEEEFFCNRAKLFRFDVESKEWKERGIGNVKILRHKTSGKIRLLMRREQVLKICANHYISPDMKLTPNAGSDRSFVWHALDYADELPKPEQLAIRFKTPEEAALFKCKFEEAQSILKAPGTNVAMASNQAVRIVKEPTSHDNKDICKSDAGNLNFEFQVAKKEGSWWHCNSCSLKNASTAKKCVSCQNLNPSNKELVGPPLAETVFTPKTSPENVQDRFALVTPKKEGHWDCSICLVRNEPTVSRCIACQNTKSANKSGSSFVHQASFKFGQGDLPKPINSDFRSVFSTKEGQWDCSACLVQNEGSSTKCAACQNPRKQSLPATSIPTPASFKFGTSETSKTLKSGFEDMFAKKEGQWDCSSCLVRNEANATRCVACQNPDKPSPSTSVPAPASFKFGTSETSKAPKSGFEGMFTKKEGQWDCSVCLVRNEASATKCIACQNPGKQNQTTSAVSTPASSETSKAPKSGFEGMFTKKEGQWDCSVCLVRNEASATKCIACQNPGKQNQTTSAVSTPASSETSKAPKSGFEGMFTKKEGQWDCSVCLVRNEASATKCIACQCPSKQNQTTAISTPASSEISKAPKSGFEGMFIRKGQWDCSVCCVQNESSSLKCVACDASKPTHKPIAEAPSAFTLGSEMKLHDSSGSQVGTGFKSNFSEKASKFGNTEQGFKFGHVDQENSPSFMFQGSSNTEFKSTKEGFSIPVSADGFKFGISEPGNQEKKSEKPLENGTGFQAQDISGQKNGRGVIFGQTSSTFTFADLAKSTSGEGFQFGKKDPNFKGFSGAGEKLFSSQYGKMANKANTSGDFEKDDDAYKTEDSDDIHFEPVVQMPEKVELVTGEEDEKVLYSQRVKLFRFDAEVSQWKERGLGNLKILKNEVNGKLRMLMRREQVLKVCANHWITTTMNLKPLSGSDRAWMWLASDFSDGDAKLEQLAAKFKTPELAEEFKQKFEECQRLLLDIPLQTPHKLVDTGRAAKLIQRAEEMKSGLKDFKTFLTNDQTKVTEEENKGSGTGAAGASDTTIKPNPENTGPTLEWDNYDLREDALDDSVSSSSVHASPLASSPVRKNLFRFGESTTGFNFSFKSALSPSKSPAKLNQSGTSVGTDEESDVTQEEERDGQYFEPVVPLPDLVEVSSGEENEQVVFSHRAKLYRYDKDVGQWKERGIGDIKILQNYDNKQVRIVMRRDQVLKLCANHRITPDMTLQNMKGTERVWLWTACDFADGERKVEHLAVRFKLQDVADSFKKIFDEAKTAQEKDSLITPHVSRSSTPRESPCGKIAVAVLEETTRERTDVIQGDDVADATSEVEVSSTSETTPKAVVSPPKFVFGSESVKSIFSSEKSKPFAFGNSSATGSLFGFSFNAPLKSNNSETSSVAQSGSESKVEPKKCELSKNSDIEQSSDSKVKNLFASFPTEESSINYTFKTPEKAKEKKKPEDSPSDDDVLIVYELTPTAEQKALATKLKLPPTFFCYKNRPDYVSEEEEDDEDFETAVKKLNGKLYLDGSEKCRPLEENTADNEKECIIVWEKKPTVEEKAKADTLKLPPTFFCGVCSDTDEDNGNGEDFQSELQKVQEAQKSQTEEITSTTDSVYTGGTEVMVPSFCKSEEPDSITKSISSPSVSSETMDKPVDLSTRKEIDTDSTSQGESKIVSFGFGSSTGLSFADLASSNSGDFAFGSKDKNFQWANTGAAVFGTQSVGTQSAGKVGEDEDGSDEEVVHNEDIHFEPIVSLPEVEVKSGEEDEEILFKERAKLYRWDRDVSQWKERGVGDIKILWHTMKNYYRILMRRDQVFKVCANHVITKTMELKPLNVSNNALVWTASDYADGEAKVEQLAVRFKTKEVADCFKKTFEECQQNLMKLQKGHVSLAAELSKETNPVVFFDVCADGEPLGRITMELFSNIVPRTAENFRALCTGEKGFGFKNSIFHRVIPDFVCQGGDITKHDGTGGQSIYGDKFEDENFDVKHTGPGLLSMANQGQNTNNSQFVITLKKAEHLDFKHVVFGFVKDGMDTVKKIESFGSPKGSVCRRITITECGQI

These are yes or no findings as the source states them, for the method shown. In cells and extracts the contact can be indirect. A yes stands for co-enrichment or nearness to the bait. Other partners may have been found.

As for “E3 SUMO-protein ligase RanBP2 (from UniProt P49792 1-3224) (enzyme)”, the binding entry is “binds”.
